B1: eVEGF-53: engineered covalently linked dimer of VEGF121 isoform with a 53 amino acid glycine-rich linker connected to a GPI anchor (SEQ ID NO: 2) (protein)
chain: MNFLLSWVHWSLALLLYLHHAKWSQAAPMAEGGGQNHHEVVKFMDVYQRSYCHPIETLVDIFQEYPDEIEYIFKPSCVPLMRCGGCCNDEGLECVPTEESNITMQIMRIKPHQGQHIGEMSFLQHNKCECRPKKDRARQEKCDKPRRGGSSGGSSGGSGGGTGGGSGAPMAEGGGQNHHEVVKFMDVYQRSYCHPIETLVDIFQEYPDEIEYIFKPSCVPLMRCGGCCNDEGLECVPTEESNITMQIMRIKPHQGQHIGEMSFLQHNKCECRPKKDRARQEKCDKPRRGNGNGNGNGNGNGNEQKLISEEDLKLAAAGNGNGNGNGNGNGNGDGNGGALCNGAGFATPVTLALVPALLATFWSLL
B2: eVEGF-38: engineered covalently linked dimer of VEGF121 isoform with a 38 amino acid glycine-rich linker connected to a GPI anchor (SEQ ID NO: 1) (protein)
chain: MNFLLSWVHWSLALLLYLHHAKWSQAAPMAEGGGQNHHEVVKFMDVYQRSYCHPIETLVDIFQEYPDEIEYIFKPSCVPLMRCGGCCNDEGLECVPTEESNITMQIMRIKPHQGQHIGEMSFLQHNKCECRPKKDRARQEKCDKPRRGGSSGGSSGGSGGGTGGGSGAPMAEGGGQNHHEVVKFMDVYQRSYCHPIETLVDIFQEYPDEIEYIFKPSCVPLMRCGGCCNDEGLECVPTEESNITMQIMRIKPHQGQHIGEMSFLQHNKCECRPKKDRARQEKCDKPRRGNGNGEQKLISEEDLKLAAAGNGGNGNGNGDGNGALCNGAGFATPVTLALVPALLATFWSLL

Test system: human retinal endothelial cells (hREC)
Assay: Transgene expression in hREC: cell lysate versus conditioned media
Assay type: cell-based

Molecule | transgene expression in cell lysate and conditioned media
B1 | detected in cell lysate but not in conditioned media
B2 | detected in cell lysate but not in conditioned media

— patent publication US12404312B2, “Engineered VEGF variants for retinal neuroprotection, promotion of axon growth and axon regeneration” (Massachusetts Eye and Ear Infirmary, priority 2018, dated 2025)
